Consider ten targets from the supplement of paper PMC7666118.

Chains of the proteins cited; added tags and fusions are not shown. Lines headed by an entry give the natural chain unless they say otherwise; changes in a name come on top.
UniProt P36543, whole entry: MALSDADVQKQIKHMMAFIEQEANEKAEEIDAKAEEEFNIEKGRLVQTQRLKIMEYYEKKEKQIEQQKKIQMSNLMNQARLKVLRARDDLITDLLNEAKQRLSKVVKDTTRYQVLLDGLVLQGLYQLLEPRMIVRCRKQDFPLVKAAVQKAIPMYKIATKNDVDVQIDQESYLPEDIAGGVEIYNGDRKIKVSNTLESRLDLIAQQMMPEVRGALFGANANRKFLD
UniProt O43684, whole entry: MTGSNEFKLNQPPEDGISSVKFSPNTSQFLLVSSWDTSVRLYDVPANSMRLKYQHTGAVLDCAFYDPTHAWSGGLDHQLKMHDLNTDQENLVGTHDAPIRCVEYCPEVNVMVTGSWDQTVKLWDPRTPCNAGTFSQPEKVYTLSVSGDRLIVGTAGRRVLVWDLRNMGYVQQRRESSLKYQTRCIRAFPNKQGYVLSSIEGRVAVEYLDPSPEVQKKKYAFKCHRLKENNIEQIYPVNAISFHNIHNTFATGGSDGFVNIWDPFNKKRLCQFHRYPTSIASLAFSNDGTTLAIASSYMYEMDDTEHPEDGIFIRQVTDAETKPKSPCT
UniProt Q9H8K7: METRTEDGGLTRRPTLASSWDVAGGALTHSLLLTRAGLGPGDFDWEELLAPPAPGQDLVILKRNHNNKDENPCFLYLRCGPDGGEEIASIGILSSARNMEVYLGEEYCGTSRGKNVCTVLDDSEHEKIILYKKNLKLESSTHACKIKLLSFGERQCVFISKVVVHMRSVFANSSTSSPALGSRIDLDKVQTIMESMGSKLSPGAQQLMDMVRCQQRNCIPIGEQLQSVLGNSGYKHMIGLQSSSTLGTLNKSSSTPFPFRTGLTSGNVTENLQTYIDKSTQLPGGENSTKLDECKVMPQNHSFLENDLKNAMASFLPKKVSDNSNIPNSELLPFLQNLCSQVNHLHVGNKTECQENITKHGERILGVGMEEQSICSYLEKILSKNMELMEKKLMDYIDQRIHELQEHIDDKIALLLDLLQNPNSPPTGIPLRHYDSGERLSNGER
UniProt Q8N2F6: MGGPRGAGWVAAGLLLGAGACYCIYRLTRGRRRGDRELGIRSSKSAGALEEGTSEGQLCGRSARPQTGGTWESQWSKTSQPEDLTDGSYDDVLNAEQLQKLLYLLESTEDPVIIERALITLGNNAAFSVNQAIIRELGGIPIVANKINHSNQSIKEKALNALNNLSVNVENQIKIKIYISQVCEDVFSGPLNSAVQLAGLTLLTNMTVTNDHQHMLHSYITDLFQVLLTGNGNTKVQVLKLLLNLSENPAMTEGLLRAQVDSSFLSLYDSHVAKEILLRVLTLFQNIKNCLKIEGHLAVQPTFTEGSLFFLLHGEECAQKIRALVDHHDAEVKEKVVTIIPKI
UniProt P56381: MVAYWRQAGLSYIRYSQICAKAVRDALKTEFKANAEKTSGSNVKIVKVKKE
UniProt Q9BUT1: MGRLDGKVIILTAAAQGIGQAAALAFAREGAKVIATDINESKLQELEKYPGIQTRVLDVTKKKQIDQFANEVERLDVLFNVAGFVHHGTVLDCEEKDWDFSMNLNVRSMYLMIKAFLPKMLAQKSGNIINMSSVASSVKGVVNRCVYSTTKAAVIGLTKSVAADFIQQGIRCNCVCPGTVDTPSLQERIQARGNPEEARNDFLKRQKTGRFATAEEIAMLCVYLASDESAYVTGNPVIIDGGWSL
UniProt P15848: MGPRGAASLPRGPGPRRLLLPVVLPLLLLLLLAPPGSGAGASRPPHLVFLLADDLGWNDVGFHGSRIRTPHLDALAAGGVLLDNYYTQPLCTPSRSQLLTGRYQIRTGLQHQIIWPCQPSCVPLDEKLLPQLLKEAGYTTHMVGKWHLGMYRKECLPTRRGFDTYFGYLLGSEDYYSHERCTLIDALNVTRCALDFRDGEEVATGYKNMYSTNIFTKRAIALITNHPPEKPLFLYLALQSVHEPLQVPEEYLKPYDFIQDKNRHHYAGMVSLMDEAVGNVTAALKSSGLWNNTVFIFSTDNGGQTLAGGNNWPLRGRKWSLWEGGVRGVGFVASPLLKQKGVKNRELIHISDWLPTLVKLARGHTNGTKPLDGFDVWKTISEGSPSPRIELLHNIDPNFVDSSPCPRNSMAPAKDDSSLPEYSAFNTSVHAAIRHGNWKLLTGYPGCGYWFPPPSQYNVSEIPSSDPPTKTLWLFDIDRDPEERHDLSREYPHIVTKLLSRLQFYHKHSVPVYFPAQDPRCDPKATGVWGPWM
UniProt P24539: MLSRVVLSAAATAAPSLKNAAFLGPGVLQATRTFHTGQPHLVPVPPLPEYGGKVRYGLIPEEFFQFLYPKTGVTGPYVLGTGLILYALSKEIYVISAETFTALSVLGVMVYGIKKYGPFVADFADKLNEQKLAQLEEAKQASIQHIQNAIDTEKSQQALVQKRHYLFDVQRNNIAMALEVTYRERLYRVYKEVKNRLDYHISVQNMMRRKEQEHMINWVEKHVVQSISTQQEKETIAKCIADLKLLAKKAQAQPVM
UniProt Q8NB49: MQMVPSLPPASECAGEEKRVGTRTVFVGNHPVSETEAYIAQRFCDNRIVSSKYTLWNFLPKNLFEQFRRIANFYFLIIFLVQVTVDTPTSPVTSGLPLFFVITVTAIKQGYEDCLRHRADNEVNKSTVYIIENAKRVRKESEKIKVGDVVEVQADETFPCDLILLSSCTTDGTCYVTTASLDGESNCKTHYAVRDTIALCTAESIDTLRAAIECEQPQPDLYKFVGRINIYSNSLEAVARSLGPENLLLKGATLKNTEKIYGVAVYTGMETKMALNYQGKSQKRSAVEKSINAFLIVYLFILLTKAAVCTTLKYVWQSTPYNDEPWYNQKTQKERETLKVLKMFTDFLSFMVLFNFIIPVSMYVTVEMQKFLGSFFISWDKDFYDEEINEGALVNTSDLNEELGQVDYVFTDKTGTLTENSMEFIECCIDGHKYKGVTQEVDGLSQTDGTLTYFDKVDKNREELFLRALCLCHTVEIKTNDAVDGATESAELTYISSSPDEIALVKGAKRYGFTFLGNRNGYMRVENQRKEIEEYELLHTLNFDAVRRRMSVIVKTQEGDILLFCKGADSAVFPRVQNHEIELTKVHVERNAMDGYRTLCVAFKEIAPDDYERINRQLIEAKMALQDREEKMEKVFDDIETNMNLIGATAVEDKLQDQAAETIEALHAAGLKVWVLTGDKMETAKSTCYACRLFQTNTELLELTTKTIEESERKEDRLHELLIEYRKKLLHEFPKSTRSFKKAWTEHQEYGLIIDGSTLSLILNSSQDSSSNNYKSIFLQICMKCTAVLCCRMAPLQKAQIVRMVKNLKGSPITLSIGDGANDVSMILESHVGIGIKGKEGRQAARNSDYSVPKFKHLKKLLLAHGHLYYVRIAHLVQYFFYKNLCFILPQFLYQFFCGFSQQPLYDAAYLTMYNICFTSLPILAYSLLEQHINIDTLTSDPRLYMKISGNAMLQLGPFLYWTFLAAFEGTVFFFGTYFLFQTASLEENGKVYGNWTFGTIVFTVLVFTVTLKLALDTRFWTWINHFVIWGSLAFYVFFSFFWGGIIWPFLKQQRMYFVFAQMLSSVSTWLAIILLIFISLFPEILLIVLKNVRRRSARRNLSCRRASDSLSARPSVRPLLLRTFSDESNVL
UniProt O95671: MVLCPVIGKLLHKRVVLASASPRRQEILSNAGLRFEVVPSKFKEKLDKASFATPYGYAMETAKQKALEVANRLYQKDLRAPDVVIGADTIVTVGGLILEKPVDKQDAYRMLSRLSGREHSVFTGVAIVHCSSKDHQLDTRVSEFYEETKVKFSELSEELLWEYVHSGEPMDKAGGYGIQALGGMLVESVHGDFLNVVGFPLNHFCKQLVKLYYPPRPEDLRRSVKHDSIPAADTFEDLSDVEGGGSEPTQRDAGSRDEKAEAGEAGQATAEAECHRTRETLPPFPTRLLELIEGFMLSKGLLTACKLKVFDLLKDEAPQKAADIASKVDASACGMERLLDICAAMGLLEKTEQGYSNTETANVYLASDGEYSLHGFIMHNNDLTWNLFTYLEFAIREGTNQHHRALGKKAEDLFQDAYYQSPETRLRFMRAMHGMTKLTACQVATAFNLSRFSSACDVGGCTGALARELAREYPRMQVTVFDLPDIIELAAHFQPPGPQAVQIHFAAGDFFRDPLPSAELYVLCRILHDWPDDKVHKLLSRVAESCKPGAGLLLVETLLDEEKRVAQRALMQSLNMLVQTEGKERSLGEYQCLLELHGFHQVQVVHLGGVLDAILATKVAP

This is one part of the list.

Compound in this test: COc1ccc(Cn2ccc3ccc(C(=O)NO)cc32)cc1
Nature of the test: dose-dependent thermal stabilisation call (2D-TPP, DLPTP, 10% FDR) (binary (1 = stabilised)); higher = stabilised by the compound. The following applies: system: HL-60 intact cells; concentration range 0.04-10 µM.
In the case of ATP6V1E1 (UniProt P36543), the “dose-dependent thermal stabilisation call” value was inactive: 0.

With BUB3 (UniProt O43684), the “dose-dependent thermal stabilisation call” value is active: 1.

Consider C10ORF88 (UniProt Q9H8K7), for which the “dose-dependent thermal stabilisation call” value was inactive: 0.

For ARMC10 (UniProt Q8N2F6), the “dose-dependent thermal stabilisation call” value is inactive: 0.

Consider ATP5E (UniProt P56381), for which the “dose-dependent thermal stabilisation call” value is inactive: 0.

As to BDH2 (UniProt Q9BUT1), the “dose-dependent thermal stabilisation call” value is inactive: 0.

For ARSB (UniProt P15848), the “dose-dependent thermal stabilisation call” value was inactive: 0.

Regarding ATP5F1 (UniProt P24539), the “dose-dependent thermal stabilisation call” value was inactive: 0.

Consider ATP11C (UniProt Q8NB49), for which the “dose-dependent thermal stabilisation call” value was inactive: 0.

Regarding ASMTL (UniProt O95671), the “dose-dependent thermal stabilisation call” value was active: 1.
